In paper PMC10357015:
Results are given in words; binding and its absence hold for the method and conditions named. In cells and extracts the contact can be indirect. Binding calls can cover weak binding; strength is not graded here. Blank lines part the entries; values can stand above or below the binder they belong to.

Biological target: Myc-Tau^P301L (human)
Experiment: co-IP; Myc-Trap beads (Chromotek) on mitochondria isolated from HeLaGAL cells over-producing Myc-tagged proteins, gently lysed with 4.5 g GDN/g protein in IP buffer (0.1 M Tris-HCl, 0.15 M NaCl, phospholipids, protease inhibitors); overnight at 4°C; eluted proteins analysed by western blot

binding: no binding
B1: TIM23 (protein, UniProt O14925 1-209)
chain: MEGGGGSGNKTTGGLAGFFGAGGAGYSHADLAGVPLTGMNPLSPYLNVDPRYLVQDTDEFILPTGANKTRGRFELAFFTIGGCCMTGAAFGAMNGLRLGLKETQNMAWSKPRNVQILNMVTRQGALWANTLGSLALLYSAFGVIIEKTRGAEDDLNTVAAGTMTGMLYKCTGGLRGIARGGLTGLTLTSLYALYNNWEHMKGSLLQQSL

binding: binds
B2: TOM40 (protein, UniProt O96008 1-361)
chain: MGNVLAASSPPAGPPPPPAPALVGLPPPPPSPPGFTLPPLGGSLGAGTSTSRSSERTPGAATASASGAAEDGACGCLPNPGTFEECHRKCKELFPIQMEGVKLTVNKGLSNHFQVNHTVALSTIGESNYHFGVTYVGTKQLSPTEAFPVLVGDMDNSGSLNAQVIHQLGPGLRSKMAIQTQQSKFVNWQVDGEYRGSDFTAAVTLGNPDVLVGSGILVAHYLQSITPCLALGGELVYHRRPGEEGTVMSLAGKYTLNNWLATVTLGQAGMHATYYHKASDQLQVGVEFEASTRMQDTSVSFGYQLDLPKANLLFKGSVDSNWIVGATLEKKLPPLPLTLALGAFLNHRKNKFQCGFGLTIG
